Results from PubChem BioAssay AID2517 (National Center for Advancing Translational Sciences (NCATS), 2010).
Hit rate of the full screen: of about 350,000 compounds, about 1,200 (0.34%) were called active. The shares of active, inactive and inconclusive entries below differ from those in the screen. The call rests on the fitted dose curve; in most records, active means well fitted inhibition curve with a large enough effect; inconclusive means small, poorly fitted or top-dose-only effect; inactive means no such curve, though single readings can be large or run the other way. A potency beside an inconclusive call is a rough fit, not a confirmed value. Non-standard residues stand in square brackets, D forms with d. Residues, ends and D or L forms follow the SMILES beside them. *: point of attachment. Phe(4-Me) = Cc1ccc(C[CH](N)C(=O)O)cc1; Bz = O=C(c1ccccc1)*

The chains behind the UniProt entries cited, without tags or fusion partners.
UniProt P27695, whole entry, looked up: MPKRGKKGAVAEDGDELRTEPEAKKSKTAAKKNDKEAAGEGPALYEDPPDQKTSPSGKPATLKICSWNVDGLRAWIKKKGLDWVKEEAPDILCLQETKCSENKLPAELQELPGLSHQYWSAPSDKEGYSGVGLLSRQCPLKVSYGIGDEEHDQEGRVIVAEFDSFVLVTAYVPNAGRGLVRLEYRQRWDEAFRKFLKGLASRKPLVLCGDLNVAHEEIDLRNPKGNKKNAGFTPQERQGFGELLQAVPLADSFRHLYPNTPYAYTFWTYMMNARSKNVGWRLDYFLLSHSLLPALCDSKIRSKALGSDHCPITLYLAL

Each molecule was assayed against DNA repair nuclease/redox regulator APEX1 (Homo sapiens) (UniProt P27695) (assay: qHTS Assay for Inhibitors of the Human Apurinic/apyrimidinic Endonuclease 1 (APE1)). Conditions: recombinant APE1, TAMRA/BHQ-2 abasic DNA cleavage fluorescence; series mostly up to 65.8 µM.
Outline: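 APE1 at 0.75 nM preincubated 15 min at room temperature with compound. Reaction then started with 50 nM double-stranded THF-abasic substrate labelled with TAMRA/BHQ-2, and 525/598 nm fluorescence read kinetically. Activity taken as third-minus-first read difference, normalized to DMSO and NSC13755 controls.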
Further: nearly all actives have a fitted effect of over 55% in size.
Potency means the concentration at half of the fitted maximal effect.

Row | Compound | Potency
1 | CCCOC(=O)c1ccc(NC(=O)Oc2ccccc2)cc1 | inconclusive: 0.0126 µM [inhibitor, full curve, poor fit]
2 | O=C1CCCC(O)=C1N=Nc1ccc(Cl)c(Cl)c1 | inactive
3 | CC(C(=O)N1CCCCCC1)N(c1ccc(Cl)cc1)S(C)(=O)=O (stereo not drawn) | inactive
4 | C/C(N)=C(/C#N)C(=O)COC(=O)C(c1ccccc1)c1ccccc1 | inconclusive: 20 µM [inhibitor, single point]
5 | Oc1cc(O)c2c(c1)O[C@H](c1ccc(O)c(O)c1)[C@@H](O)C2 | active: 11.2 µM
6 | O=C(CSCc1ccccc1)N1CCN(C(=O)c2ccco2)CC1 | inconclusive: 44.7 µM [inhibitor, single point]
7 | CCN(CC)S(=O)(=O)c1cc(-c2nn(C)c(=O)c3ccccc23)ccc1C | inconclusive: 39.8 µM [inhibitor, single point]
8 | N=c1oc2cc(O)ccc2cc1C(=O)Nc1ccc(Cl)cc1 | inactive
9 | COc1ccc(N2CCN(C(=O)Cn3cncn3)CC2)cc1 | inconclusive: 0.0112 µM [inhibitor, full curve, poor fit]
10 | Cc1cc(/C=C(/C#N)c2nc3ccccc3[nH]2)c(C)n1-c1ccccc1C(=O)O | inconclusive: 25.1 µM [inhibitor, single point]
11 | Cc1ccc(C)c(N2C(=N)S/C(=C\c3ccc(-c4ccccc4C(=O)O)o3)C2=O)c1 | inconclusive: 31.6 µM [inhibitor, partial curve]
12 | CCOc1ccc(NC(=S)N(CCN2CCOCC2)Cc2cc3cc4c(cc3[nH]c2=O)OCO4)cc1 | inconclusive: 0.0112 µM [inhibitor, full curve, poor fit]
13 | O=c1oc(-c2ccco2)nc2ccccc12 | inactive
14 | COc1cc(NC(=O)CSc2nc3[nH]ncc3c(=O)n2-c2ccc(Cl)cc2)cc(OC)c1 | inactive
15 | O=c1c2cc(-c3ccccc3)sc2nc2n1N=C(c1cccs1)CS2 | inconclusive: 5.62 µM [inhibitor, single point]
16 | CCCC(=O)NC(=S)Nc1nc(-c2ccc(OC)cc2)cs1 | inconclusive: 31.6 µM [inhibitor, single point]
17 | O=C(O)COc1ccc(Br)cc1/C=N/O | inconclusive: 22.4 µM [inhibitor, partial curve]
18 | OC(COc1ccc2c(c1)OCO2)CN1CCCCC1 (stereo not drawn) | inconclusive: 31.6 µM [inhibitor, partial curve]
19 | CCC(CC)=N/N=C/c1c(O)n(CC)c2cc(C3=NNC(=O)CC3)ccc12 | inconclusive: 7.08 µM [inhibitor, single point]
20 | O=C(c1cnc2sccn2c1=O)N(Cc1ccccc1)c1ccccn1 | inconclusive: 22.4 µM [inhibitor, partial curve, poor fit]
21 | O=c1cc(-c2ccccc2)oc2c(O)c(O)ccc12 | inconclusive: 5.62 µM [inhibitor, partial curve]
22 | COc1ccc(S(=O)(=O)/N=C2/NC(=O)/C(=C\c3cc(OC)c(OC)cc3[N+](=O)[O-])S2)cc1 | inactive

Some of the entries above in a different format.
Row	Compound	Potency
4	C/C(N)=C(/C#N)C(=O)COC(=O)C(c1ccccc1)c1ccccc1	inconclusive: 20 µM [inhibitor, single point]
5	Oc1cc(O)c2c(c1)O[C@H](c1ccc(O)c(O)c1)[C@@H](O)C2	active: 11.2 µM
7	CCN(CC)S(=O)(=O)c1cc(-c2nn(C)c(=O)c3ccccc23)ccc1C	inconclusive: 39.8 µM [inhibitor, single point]
12	CCOc1ccc(NC(=S)N(CCN2CCOCC2)Cc2cc3cc4c(cc3[nH]c2=O)OCO4)cc1	inconclusive: 0.0112 µM [inhibitor, full curve, poor fit]
15	O=c1c2cc(-c3ccccc3)sc2nc2n1N=C(c1cccs1)CS2	inconclusive: 5.62 µM [inhibitor, single point]
16	CCCC(=O)NC(=S)Nc1nc(-c2ccc(OC)cc2)cs1	inconclusive: 31.6 µM [inhibitor, single point]
19	CCC(CC)=N/N=C/c1c(O)n(CC)c2cc(C3=NNC(=O)CC3)ccc12	inconclusive: 7.08 µM [inhibitor, single point]
21	O=c1cc(-c2ccccc2)oc2c(O)c(O)ccc12	inconclusive: 5.62 µM [inhibitor, partial curve]

(listing goes on)

Row | Compound | Potency
23 | CCOC(=O)c1ccccc1-c1csc(NS(=O)(=O)c2ccc(Cl)cc2)n1 | inconclusive: 7.08 µM [inhibitor, single point]
24 | Cc1sc2ncn(C(C)C(=O)OC3CCCCC3)c(=O)c2c1C (stereo not drawn) | inconclusive: 3.55 µM [inhibitor, single point]
25 | Cc1ccc(C(=O)Nc2ccc3[nH]c(=O)[nH]c3c2)c(C)c1 | inconclusive: 44.7 µM [inhibitor, single point]
26 | C/C(=N\N1C(=O)c2ccccc2NC1c1ccco1)c1ccccc1O (stereo not drawn) | inactive
27 | Cc1cccc(Nc2nc(N)nc(CCl)n2)c1 | inconclusive: 3.55 µM [inhibitor, single point]
28 | COc1nccc(-c2c(-c3ccc(F)cc3)ncn2C2CCC(O)CC2)n1 (stereo not drawn) | inconclusive: 31.6 µM [inhibitor, partial curve, poor fit]
29 | Cc1ccc(SCC(=O)NCCSCc2ccccc2)cc1 | inconclusive: 3.98 µM [inhibitor, single point]
30 | CN(C)c1ccc(C(CN)c2c[nH]c3ccccc23)cc1 (stereo not drawn) | inconclusive: 35.5 µM [inhibitor, single point]
31 | CC(C)(C)c1ccc(C(=O)Cn2nc(C(=O)O)c3ccccc3c2=O)cc1 | inconclusive: 5.01 µM [inhibitor, single point]
32 | COc1ccccc1-c1noc(-c2ccccc2C(=O)N2CCOCC2)n1 | inconclusive: 20 µM [inhibitor, partial curve, poor fit]
33 | O=C(Nc1ccncc1)c1ccccc1F | inactive
34 | COc1ccc(-c2no[n+]([O-])c2C#N)cc1 | inactive
35 | N/C(Cc1cccs1)=N\OC(=O)COc1ccccc1Cl | inconclusive: 31.6 µM [inhibitor, single point]
36 | O=C1c2c(O)cccc2Cc2cccc(O)c21 | inconclusive: 35.5 µM [inhibitor, single point]
37 | CCOC(=O)N1CCN(C(=O)c2ccc3nc4ccsc4c(=O)n3c2)CC1 | inconclusive: 39.8 µM [inhibitor, single point]
38 | O=[N+]([O-])c1cc(/C=N/O)ccc1N1CCCC1 | inconclusive: 0.794 µM [inhibitor, full curve, poor fit]
39 | O=C(Cc1cccs1)Nc1ccc(N2CCOCC2)cc1 | inconclusive: 44.7 µM [inhibitor, single point]
40 | CC1=C/C(=N\OS(=O)(=O)c2ccccc2)C=CC1=O | inconclusive: 31.6 µM [inhibitor, single point]
41 | Cc1ccc(CC(NC(=O)c2ccccc2)C(=O)NC(Cc2ccccc2)C(=O)O)cc1 (stereo not drawn) (Bz-[Phe(4-Me)]-Phe-OH; configuration not given here) | inconclusive: 0.0224 µM [inhibitor, full curve]
42 | O=C(c1cnc2n(c1=O)CCS2)N(c1ccccc1)C1CCCCC1 | inconclusive: 31.6 µM [inhibitor, single point]
43 | CCOc1ccc2nc(NC(=O)Nc3cccs3)sc2c1 | inconclusive: 8.91 µM [inhibitor, single point]
